Measurements reported in PubChem BioAssay AID652259 (Drosophila RNAi Screening Center, 2013)
Assay: 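Genome-wide hunt for genes that control Wingless pathway activity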 (primary screen). System: Drosophila clone 8 imaginal disc epithelial cells. Reagents: long dsRNA against Drosophila genes. Treatment: pathway stimulated by co-transfected Wingless expression plasmid. Measurement: 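Dual luciferase reads per well after Wingless plasmid stimulation: reporter firefly light and Renilla control light; activity is firefly divided by Renilla, a ratio not deposited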. Direction: firefly reporter light: higher = more Wg reporter light, before normalisation; Renilla control light: higher = more transfected or surviving cells. Call rule: 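a knock-down is a candidate when at least two out of four statistical tests show it departing from its plate mean; one test alone signals a weak candidate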. Calls: active = candidate regulator (raises or lowers reporter); inactive = not a candidate.
The screen tested about 22,000 reagents; this is an unselected part of those that have a named target and a result. Over the whole deposit, 233 (1.1%) were called active. 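Light values are raw, unnormalised plate reads; the ratio scores behind the reporter calls were not deposited.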 Names joined by + are all predicted targets of the reagent. The record does not give: the amount of reagent, the time to read-out, the dose of the treatment.

The opening 4 entries as a preview:
gene | dsRNA | reporter change call, replicate 1 | firefly reporter light, replicate 1 | firefly reporter light, replicate 2 | Renilla control light, replicate 1 | Renilla control light, replicate 2 | outcome
Cpr35B | DRSC01949 | – | 4036 | 8932 | 1773 | 4521 | inactive
Cpr35B | DRSC22797 | – | 7.23e5 | 7.48e5 | 2.21e5 | 2.75e5 | inactive
obst-E | DRSC02128 | – | 7956 | – | 3286 | – | inactive
CG12362 | DRSC09884 | – | 6164 | – | 3497 | – | inactive

Results, from the first entry:
gene | dsRNA | reporter change call, replicate 1 | firefly reporter light, replicate 1 | firefly reporter light, replicate 2 | Renilla control light, replicate 1 | Renilla control light, replicate 2 | outcome
Cpr35B | DRSC01949 | – | 4036 | 8932 | 1773 | 4521 | inactive
Cpr35B | DRSC22797 | – | 7.23e5 | 7.48e5 | 2.21e5 | 2.75e5 | inactive
obst-E | DRSC02128 | – | 7956 | – | 3286 | – | inactive
CG12362 | DRSC09884 | – | 6164 | – | 3497 | – | inactive
CG30376 | DRSC05086 | – | 16896 | – | 6800 | – | inactive
Or2a | DRSC18690 | – | 14256 | – | 9057 | – | inactive
Sgsh | DRSC14771 | – | 7572 | – | 1367 | – | inactive
Swim | DRSC04334 | – | 5978 | – | 1876 | – | inactive
mthl15 | DRSC01120 | – | 17209 | – | 7084 | – | inactive
Est-6 | DRSC11162 | – | 5449 | – | 2391 | – | inactive
CG15111 | DRSC21467 | – | 5.82e5 | 6.70e5 | 2.82e5 | 2.34e5 | inactive
CG7381 | DRSC16238 | – | 11088 | – | 3147 | – | inactive
CG6978 | DRSC18409 | – | 22700 | – | 11431 | – | inactive
CG6067 | DRSC18399 | – | 12826 | – | 6601 | – | inactive
GC1 | DRSC15322 | – | 15681 | – | 5209 | – | inactive
CG11356 | DRSC19401 | – | 14354 | – | 7970 | – | inactive
CG30458 | DRSC06660 | – | 10536 | 6.24e5 | 4875 | 1.98e5 | inactive
Gr58c | DRSC04136 | – | 1548 | 5892 | 597 | 2026 | inactive
Irc | DRSC16454 | – | 3379 | 6439 | 1408 | 2010 | inactive
CG8372 | DRSC03086 | – | 9893 | – | 4791 | – | inactive
Eogt | DRSC00727 | – | 14100 | – | 5988 | – | inactive
hfp | DRSC08731 | – | 7264 | – | 2806 | – | inactive
hfp | DRSC08732 | – | 6067 | – | 3034 | – | inactive
hfp | DRSC22408 | – | 7.57e5 | 7.76e5 | 2.99e5 | 2.58e5 | inactive
Ets21C | DRSC00751 | – | 6417 | 6930 | 1696 | 3298 | inactive
PH4alphaSG1 | DRSC15080 | – | 5872 | – | 2816 | – | inactive
CG34426 | DRSC09977 | – | 1462 | 5466 | 1448 | 2016 | inactive
Adar | DRSC17725 | – | 14752 | – | 13325 | – | inactive
CG43183 | DRSC05113 | – | 12865 | – | 8237 | – | inactive
CG32269 + CG32270 | DRSC08195 | – | 6070 | – | 2739 | – | inactive
CG11458 | DRSC11666 | – | 16192 | – | 4609 | – | inactive
dpr15 | DRSC12891 | – | 3116 | – | 1312 | – | inactive
dpr15 | DRSC14187 | – | 10824 | – | 3849 | – | inactive
dpr15 | DRSC14188 | – | 20027 | – | 4755 | – | inactive
bard | DRSC14796 | – | 16021 | – | 3269 | – | inactive
CG8343 | DRSC04905 | – | 11840 | – | 3457 | – | inactive
TfIIA-S | DRSC16883 | Wg reporter activity lowered | 6252 | – | 10041 | – | active
Gabat | DRSC10846 | – | 12656 | – | 2744 | – | inactive
TotE | DRSC21355 | – | 4.38e5 | 4.33e5 | 1.54e5 | 1.37e5 | inactive
CG7402 | DRSC10839 | – | 5961 | – | 3163 | – | inactive
Stip1 | DRSC00756 | – | 9497 | – | 3921 | – | inactive
endos | DRSC10658 | – | 4074 | – | 1773 | – | inactive
Hmgcl | DRSC02051 | – | 2017 | 5381 | 972 | 1994 | inactive
CG13339 | DRSC06373 | – | 5984 | – | 2088 | – | inactive
Cchl | DRSC15949 | – | 1922 | 5416 | 864 | 1573 | inactive
Mp20 | DRSC07474 | – | 6508 | – | 2822 | – | inactive
DIP-alpha | DRSC17891 | – | 2917 | – | 1081 | – | inactive
DIP-alpha | DRSC17892 | – | 16181 | – | 3898 | – | inactive
CG15522 | DRSC15059 | – | 8771 | – | 3207 | – | inactive
CG7296 | DRSC03042 | – | 6444 | – | 1980 | – | inactive
CG7296 | DRSC22343 | – | 3.27e5 | 3.60e5 | 1.42e5 | 1.61e5 | inactive
bw | DRSC04005 | – | 11752 | – | 7943 | – | inactive
bw | DRSC04677 | – | 9939 | – | 2747 | – | inactive
Corin | DRSC06818 | – | 3376 | 9577 | 1200 | 3751 | inactive
CG15279 | DRSC01935 | – | 5764 | – | 2376 | – | inactive
CG9855 | DRSC12344 | – | 13453 | 7.29e5 | 4909 | 3.42e5 | inactive
mRpL13 | DRSC02076 | – | 3138 | 7601 | 563 | 2560 | inactive
CG30047 | DRSC05340 | – | 15641 | – | 11863 | – | inactive
CG13926 | DRSC08395 | – | 4403 | – | 1732 | – | inactive
Lkb1 | DRSC16481 | – | 7344 | – | 2162 | – | inactive
Dis3l2 | DRSC08496 | – | 8957 | – | 3209 | – | inactive
CG11555 | DRSC00315 | – | 3298 | 8459 | 957 | 2912 | inactive
Tsen54 | DRSC10527 | – | 5827 | – | 2459 | – | inactive
upd1 | DRSC20358 | – | 21618 | – | 9243 | – | inactive
CG2076 | DRSC19832 | – | 20866 | – | 10250 | – | inactive
CG6688 | DRSC16094 | – | 15621 | – | 13200 | – | inactive
CG13869 + CG11099 | DRSC06428 | – | 6957 | – | 2624 | – | inactive
CG14563 | DRSC11724 | – | 20557 | – | 3623 | – | inactive
jp | DRSC02213 | – | 12901 | – | 2240 | – | inactive
jp | DRSC02744 | – | 4614 | 7474 | 1058 | 2416 | inactive
Muc30E | DRSC01101 | – | 22780 | – | 11185 | – | inactive
CG32305 | DRSC08614 | – | 4631 | – | 2774 | – | inactive
CG31099 | DRSC14252 | – | 13036 | – | 10333 | – | inactive
Syngr | DRSC06003 | – | 9258 | – | 2635 | – | inactive
Sas10 | DRSC18355 | – | 11965 | – | 8011 | – | inactive
Smn | DRSC10223 | – | 5541 | – | 2232 | – | inactive
psh | DRSC19990 | – | 20480 | – | 10537 | – | inactive
CG7276 | DRSC10797 | – | 6321 | – | 2736 | – | inactive
Parp1 | DRSC07725 | – | 16866 | – | 12673 | – | inactive
Parp1 | DRSC07778 | – | 4707 | – | 2563 | – | inactive
Parp1 | DRSC07780 | – | 4795 | – | 2434 | – | inactive
RpS3 | DRSC16838 | – | 14130 | – | 12304 | – | inactive
Tailor | DRSC12526 | – | 8582 | – | 2941 | – | inactive
CG16837 | DRSC04283 | – | 3367 | 5900 | 960 | 1938 | inactive
PpD5 | DRSC04641 | – | 3037 | 6823 | 956 | 3440 | inactive
squ | DRSC01549 | – | 21797 | – | 9848 | – | inactive
CG11162 | DRSC19391 | – | 29350 | – | 16368 | – | inactive
CG11162 | DRSC22538 | – | 3.64e5 | 3.57e5 | 1.61e5 | 1.43e5 | inactive
CG15878 | DRSC08486 | – | 6332 | – | 2642 | – | inactive
RhoGAP5A | DRSC18294 | – | 3765 | 5876 | 1122 | 1938 | inactive
ppk30 | DRSC15302 | – | 5075 | – | 2298 | – | inactive
CG5800 | DRSC19962 | – | 18109 | – | 9275 | – | inactive
plx | DRSC12260 | – | 14002 | – | 3067 | – | inactive
plx | DRSC12385 | – | 19834 | – | 4625 | – | inactive
plx | DRSC22683 | – | 5.64e5 | 7.04e5 | 1.74e5 | 1.59e5 | inactive
